# From the supplement of paper PMC3974653
# Structures can show the parent of a compound that is named as a salt.
# Test system: MTT (mouse pheochromocytoma)
# Assay: IC50 of cell viability (ATP content)
# Details: (24 or 48 h)
# Outline: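 MTT mouse pheochromocytoma cells in white 1536-well plates were treated for 24 or 48 hrs with library compounds at 8 final concentrations from 0.5 nM to 46 µM. ATP content was measured with CellTiter-Glo luminescence, using positive-control wells as 100% and DMSO wells as 0%. IC50 came from a four-parameter logistic fit.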
row,IC50 of cell viability [µM],Compound
1,> 46,CCC(C)C(C(=O)OCC[N+](C)(CC)CC)c1ccccc1 (stereo not drawn)
2,> 46,CN1[C@@H]2CC[C@H]1CC(OC(=O)[C@@H](O)c1ccccc1)C2 (stereo partly drawn) [HOMATROPINE]
3,> 46,"CN1[C@@H]2CC[C@@H]1CC(OC(=O)[C@@H](O)c1ccccc1)C2 (stereo partly drawn) [Homatropine hydrobromide (R,S)]"
